# Assay results published in paper PMC7862700.
# The chains behind the UniProt entries cited, without tags or fusion partners. Where a name states a change or a piece, a line headed by the entry shows the natural chain unless it says otherwise.
# UniProt Q00613: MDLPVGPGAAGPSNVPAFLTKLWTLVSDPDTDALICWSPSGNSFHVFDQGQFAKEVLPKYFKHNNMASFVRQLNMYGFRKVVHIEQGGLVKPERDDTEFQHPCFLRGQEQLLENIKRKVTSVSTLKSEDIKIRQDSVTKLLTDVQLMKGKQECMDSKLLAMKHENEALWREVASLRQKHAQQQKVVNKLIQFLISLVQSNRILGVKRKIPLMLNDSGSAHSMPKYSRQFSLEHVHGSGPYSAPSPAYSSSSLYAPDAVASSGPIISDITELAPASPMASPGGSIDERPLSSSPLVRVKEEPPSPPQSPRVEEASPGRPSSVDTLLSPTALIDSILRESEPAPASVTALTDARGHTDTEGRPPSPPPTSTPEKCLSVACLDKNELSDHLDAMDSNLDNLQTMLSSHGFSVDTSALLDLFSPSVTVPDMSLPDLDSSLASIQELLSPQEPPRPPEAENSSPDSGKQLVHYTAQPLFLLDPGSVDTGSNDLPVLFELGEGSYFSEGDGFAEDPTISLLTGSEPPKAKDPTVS
# This is a selection; strong and weak results do not stand in their true shares. For some assays here: At the low end of the ranking the order means little. This is one part of the list. For some assays here: Construct or isoform of the protein are uncertain.
# Target: HSF1 (UniProt Q00613)
# Assay: DAPPL (digital affinity profiling via proximity ligation, sequencing)
# Conditions: 10 mM Tris-HCl pH 7.5, 50 mM NaCl, 1 mM DTT, 4% glycerol, room temperature, 30 min; GST-TFs on glutathione beads, 16-mer random dsDNA library, 0.1% …; high values mean tight binding; double strand, one strand shown; scale: fold enrichment (6-mer frequency, TF over GST control)
row,Sequence,binding signal
1,CCCAAC,0.833
2,TGAAGC,0.968
3,ATGACC,1.42
4,CCAAAG,0.962
5,CTACGT,0.982
6,CTCATA,1.25
7,CGCCAA,0.89
8,CATATG,0.871
9,GGAAGA,0.884
10,ACGAGC,0.925
11,AGAAGA,1.68
12,TGGTGG,0.805
13,AATATA,1.38
14,TTTTGG,1.44
15,CAATGC,0.993
16,ACGTTT,1.05
17,TCAAGC,0.984
18,ATGGGG,0.885
19,GCAATG,0.78
20,CATAAC,0.916

row,Sequence,binding signal
1,CTGCAG,0.983
2,TACAAC,0.971
3,GCGACG,0.78
4,GTTGAT,0.935
5,AGTTTC,1.38
6,CTCCGT,0.945
7,CTCGCG,1.55
8,GGGGCT,0.949
9,TACGTC,0.967
10,CGACCA,1.14
11,CATGCC,0.897
12,CTCTAC,1.37
13,GTCAAA,0.785
14,GACCCC,0.67
15,GGTGTT,0.968
16,AACGCG,0.943
17,TGTTGA,0.878
18,CACATG,0.865
19,CACTCA,0.922
20,ACCTCC,1.11

# Target: T1, ELF2 (UniProt Q15723)
# T1 sequence: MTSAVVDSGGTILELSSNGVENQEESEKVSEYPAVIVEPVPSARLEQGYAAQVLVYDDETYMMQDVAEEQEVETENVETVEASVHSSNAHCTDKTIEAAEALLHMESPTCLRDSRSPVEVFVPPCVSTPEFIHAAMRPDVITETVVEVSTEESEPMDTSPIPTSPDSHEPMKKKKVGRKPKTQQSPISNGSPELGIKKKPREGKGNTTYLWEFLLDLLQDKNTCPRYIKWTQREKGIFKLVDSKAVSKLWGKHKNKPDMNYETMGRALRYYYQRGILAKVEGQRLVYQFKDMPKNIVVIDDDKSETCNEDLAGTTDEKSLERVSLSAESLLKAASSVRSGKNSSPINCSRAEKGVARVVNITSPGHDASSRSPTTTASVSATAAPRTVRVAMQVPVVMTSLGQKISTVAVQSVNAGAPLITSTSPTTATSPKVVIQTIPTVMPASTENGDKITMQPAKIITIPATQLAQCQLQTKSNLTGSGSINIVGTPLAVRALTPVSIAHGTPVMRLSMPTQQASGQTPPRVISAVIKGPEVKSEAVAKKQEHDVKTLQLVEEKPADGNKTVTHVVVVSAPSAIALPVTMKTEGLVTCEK
# Assay: as above
# Conditions: 10 mM Tris-HCl pH 7.5, 50 mM NaCl, 1 mM DTT, 4% glycerol, room temperature, 30 min; GST-TFs on glutathione beads, 16-mer random dsDNA library, 0.1% …; high values mean tight binding; double strand, one strand shown; scale: fold enrichment (6-mer frequency, TF over GST control)
row,Sequence,binding signal
1,CCCAAC,1.1
2,TGAAGC,0.968
3,ATGACC,1.52
4,CCAAAG,0.937
5,CTACGT,1.19
6,CTCATA,1.32
7,CGCCAA,0.981
8,CATATG,0.979
9,GGAAGA,1.68
10,ACGAGC,0.918
11,AGAAGA,0.924
12,TGGTGG,1.01
13,AATATA,1.38
14,TTTTGG,1.39
15,CAATGC,1.15
16,ACGTTT,1.23
17,TCAAGC,0.947
18,ATGGGG,1.05
19,GCAATG,0.968
20,CATAAC,1.15

row,Sequence,binding signal
1,CTGCAG,1.07
2,TACAAC,1.12
3,GCGACG,0.866
4,GTTGAT,1.04
5,AGTTTC,1.36
6,CTCCGT,1.09
7,CTCGCG,1.35
8,GGGGCT,0.981
9,TACGTC,1.21
10,CGACCA,1.17
11,CATGCC,1.08
12,CTCTAC,1.5
13,GTCAAA,0.905
14,GACCCC,0.921
15,GGTGTT,1.05
16,AACGCG,1.01
17,TGTTGA,0.988
18,CACATG,1.06
19,CACTCA,1.12
20,ACCTCC,1.4
